{"source": "PubChem BioAssay AID504444", "about": "(National Center for Advancing Translational Sciences (NCATS), 2011)", "note": "In all, about 360,000 compounds went through this assay and about 7,500 (2.1%) were called active. This list was built around the results that the source calls inconclusive (neither active nor inactive); the mix of calls is not that of the screen. Calls follow the shape of the dose curve; as a rule, active = well fitted inhibition curve with a large enough effect; inconclusive = small, poorly fitted or top-dose-only effect, or effect the other way; inactive = flat fitted curve, though single readings scatter. Potencies beside an inconclusive call are fits to weak or partial responses and may not hold up. % is scaled to controls: 0 for no effect and ±100 for the full control effect; potency is read from the fitted curve at half-maximal effect.", "data": [{"assay": "Nrf2 qHTS screen for inhibitors; also: nearly all actives have a fitted effect of over 60% in size", "settings": "A549 ARE-Fluc reporter, luciferase luminescence, 18-24 h; activity change, negative = inhibition: at 46 µM (top of the series)", "procedure,_shortened": "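Nrf2 function is reported as luminescence of an ARE-controlled luciferase in A549 cells. Compounds were tested at several concentrations, and a CellTiter-Fluor read on the same wells flagged cytotoxicity.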", "values": [{"smiles": "CCOC(=O)N1CCN(/C=C(\\C#N)c2nc3ccccc3s2)CC1", "Potency": "inconclusive: 29.1 µM [falling, single point]"}, {"smiles": "CCOc1ccc(N(CC(=O)NCCc2ccccc2)C(=O)c2csnn2)cc1", "Potency": "inconclusive: 13 µM [activator, partial curve]"}, {"smiles": "COc1ccc(C(=O)NC2=NCCS2)c(OC)c1", "Potency": "inconclusive: 1.46 µM [activator, partial curve, poor fit]"}, {"smiles": "Cc1nc2ccc(NC(=S)NCc3ccccc3)cc2nc1C", "Potency": "inconclusive: 14.6 µM [activator, single point]"}, {"smiles": "COc1ccc(-c2cc(C(F)(F)F)nc(SCC(=O)NCc3cccs3)n2)cc1", "Potency": "inconclusive: 8.2 µM [falling, partial curve]"}, {"smiles": "CC(=O)c1ccc(NC(=O)c2ccc(C)c(Br)c2)cc1", "Potency": "inconclusive: 2.31 µM [activator, full curve]"}, {"smiles": "COc1ccc(OC)c(NC(=O)c2ccc(-c3nc(CSc4ccccc4)c(C)o3)cc2)c1", "Potency": "inconclusive: 4.11 µM [falling, full curve]"}, {"smiles": "O=C(/C=C/c1ccc2c(c1)OCO2)NCCSCc1cccc(Cl)c1", "activity change, negative = inhibition": "inactive: -28.4%"}, {"smiles": "CCOC(=O)c1cnc(Nc2nc3ccccc3o2)nc1CSC(=S)N1CCCCC1", "Potency": "inconclusive: 20.6 µM [activator, single point]"}, {"smiles": "CSc1cccc(NC(=O)NCc2cccc(CNC(=O)Nc3cccc(SC)c3)c2)c1", "Potency": "inconclusive: 25.9 µM [falling, single point]"}, {"smiles": "CC(C)c1c(C(=O)N/N=C/c2cccc(OCc3ccc(F)cc3)c2)nnn1-c1nonc1N", "Potency": "inconclusive: 20.6 µM [falling, partial curve]"}, {"smiles": "COc1ccc(C(=O)NC(C)c2nc3ccccc3n2C)cc1OC", "note": "(stereo unspecified)", "activity change, negative = inhibition": "inactive: -10.7%"}, {"smiles": "CC1(C)Cc2cccc(OCC(=O)OCc3nnc(-c4ccc([N+](=O)[O-])cc4)o3)c2O1", "Potency": "inconclusive: 0.0041 µM [falling, full curve, poor fit]"}, {"smiles": "CC(=O)c1ccc(N2CCN(C(=O)C3CCN(S(=O)(=O)c4ccc(F)cc4)CC3)CC2)cc1", "Potency": "inconclusive: 20.6 µM [falling, single point]"}, {"smiles": "CN(C)CCNc1oc(COc2ccc(-c3ccccc3)cc2)nc1C#N", "activity change, negative = inhibition": "inactive: 3.57%"}, {"smiles": "CC1CC(=S)Nc2ccccc2N1Cc1ccccc1", "note": "(stereo unspecified)", "Potency": "inconclusive: 16.4 µM [falling, partial curve]"}, {"smiles": "O=C(COc1ccc2c(c1)OCO2)Nc1ccc2c(c1)oc1ccccc12", "Potency": "inconclusive: 29.1 µM [falling, single point]"}, {"smiles": "Cc1cc(Cl)c(S(=O)(=O)N2CCN(c3ccc(F)cc3)CC2)cc1OCC(N)=O", "Potency": "inconclusive: 4.11 µM [falling, partial curve, poor fit]"}, {"smiles": "COc1ccc(OCCOc2ccc(C)nc2[N+](=O)[O-])cc1", "Potency": "inconclusive: 2.59 µM [activator, partial curve]"}, {"smiles": "Cc1ccc(N=Cc2nc(/C=C/c3cccc([N+](=O)[O-])c3)oc2O)cc1", "Potency": "inconclusive: 7.31 µM [falling, partial curve, poor fit]"}, {"smiles": "O=c1[nH]c(O)c(/C=C2\\C=Nc3ccccc32)[nH]1", "Potency": "inconclusive: 23.1 µM [activator, partial curve]"}, {"smiles": "COc1cc(CNCCO)cc(Cl)c1OCc1ccccc1Cl", "activity change, negative = inhibition": "inactive: 9.41%"}, {"smiles": "C(=N\\Nc1nc(-c2ccccc2)cs1)/c1ccco1", "Potency": "inconclusive: 23.1 µM [activator, single point]"}, {"smiles": "O=C(Nc1cccc(S(=O)(=O)N2CCCCC2)c1)C1COc2ccccc2O1", "note": "(stereo unspecified)", "Potency": "inconclusive: 20.6 µM [falling, single point]"}, {"smiles": "O=C(Nc1ccc(Cl)cc1)OCc1cc(-c2ccccc2Cl)on1", "Potency": "inconclusive: 18.4 µM [falling, partial curve, poor fit]"}, {"smiles": "CC1CCN(C(=O)c2cc3nc(C4CC4)cc(C(F)(F)F)n3n2)CC1", "Potency": "active: 18.4 µM"}, {"smiles": "Fc1cccc(Nc2ncnc3[nH]ncc23)c1", "Potency": "inconclusive: 32.6 µM [falling, single point]"}, {"smiles": "CC(Cc1cccs1)NC(=O)c1cccs1", "note": "(stereo unspecified)", "Potency": "inconclusive: 23.1 µM [activator, single point]"}, {"smiles": "O=C(/C=C/c1ccccc1)COC(=O)c1ccccc1", "activity change, negative = inhibition": "inactive: -14.1%"}, {"smiles": "OCC1(CC2CCCCO2)CCN(Cc2cccc(O)c2)CC1", "note": "(stereo unspecified)", "Potency": "inconclusive: 16.4 µM [activator, single point]"}, {"smiles": "Cc1ccc2[nH]c(=O)c(C(c3nnnn3C3CCCC3)N(Cc3cccnc3)Cc3ccco3)cc2c1", "note": "(stereo unspecified)", "Potency": "inconclusive: 41.1 µM [falling, single point]"}, {"smiles": "COc1ccc(S(=O)(=O)N2CCC3(CC2)CC(=O)c2ccccc2O3)cc1C", "Potency": "inconclusive: 2.31 µM [activator, partial curve, poor fit]"}, {"smiles": "CCOC(=O)C1=C(N)Oc2cc(O)ccc2C1c1cccnc1", "note": "(stereo unspecified)", "Potency": "inconclusive: 20.6 µM [falling, single point]"}, {"smiles": "Cc1ccc(S(=O)(=O)c2nc(S(C)(=O)=O)sc2N2CCCC2)cc1", "activity change, negative = inhibition": "inactive: -6.43%"}, {"smiles": "CSc1cnnc2ccccc12", "Potency": "inconclusive: 16.4 µM [falling, partial curve, poor fit]"}, {"smiles": "O=C1c2ccccc2-c2nc3ccccc3cc21", "Potency": "inconclusive: 4.61 µM [activator, partial curve]"}, {"smiles": "Cc1cccc2nc(-c3cccc(NC(=O)c4ccc(Cl)cc4)c3)cn12", "Potency": "inconclusive: 32.6 µM [falling, single point]"}, {"smiles": "O=C(CNC(=O)c1ccccc1Cl)OC(C(=O)Nc1cc(C(F)(F)F)ccc1Cl)c1ccccc1", "note": "(stereo unspecified)", "activity change, negative = inhibition": "inactive: -40.8%"}, {"smiles": "O=C(CSCC(=O)NC1CC1)Nc1ccc2ccccc2c1", "Potency": "inconclusive: 18.4 µM [activator, single point]"}, {"smiles": "COc1cccc2sc3cc(C#CC4(O)CCCCC4)ccc3c(=O)c12", "Potency": "inconclusive: 6.51 µM [activator, partial curve, poor fit]"}, {"smiles": "CCC1=NN(C(=O)c2ccc(Cl)cc2)C(O)(c2ccccc2)C1", "note": "(stereo unspecified)", "activity change, negative = inhibition": "inactive: 26.5%"}, {"smiles": "CN(CC(=O)Nc1ccc(Cl)cc1)C(=O)CCc1c[nH]c2ccccc12", "Potency": "inconclusive: 18.4 µM [falling, single point]"}, {"smiles": "O=C(O)c1ccc(/C=N/n2cc(-c3ccccc3)[nH]c2=S)cc1", "Potency": "inconclusive: 5.17 µM [falling, partial curve, poor fit]"}, {"smiles": "COc1ccc(OCCCC(=O)Nc2nc(-c3ccccn3)cs2)cc1", "Potency": "inconclusive: 29.1 µM [falling, single point]"}, {"smiles": "CCOC(=O)c1ccc(NC(=O)C2CC(=O)N(c3ccc4c(c3)OCCO4)C2)cc1", "note": "(stereo unspecified)", "activity change, negative = inhibition": "inactive: -15.5%"}, {"smiles": "O=C(NCc1ccncc1)c1cc(-c2ccc(Cl)cc2)oc1C(F)(F)F", "Potency": "inconclusive: 16.4 µM [falling, single point]"}, {"smiles": "CC(C)NC(=O)c1ccc2c(=O)n(CC3CCCO3)c(=S)[nH]c2c1", "note": "(stereo unspecified)", "Potency": "inconclusive: 5.8 µM [falling, full curve, poor fit]"}, {"smiles": "CCOC(=O)N1CCC(NC(=O)c2ccc3c(c2)N(Cc2ccccc2)CCS3)CC1", "Potency": "inconclusive: 20.6 µM [falling, single point]"}, {"smiles": "N#CC1=C(N)N(c2ccccc2)C2=C(C(=O)CCC2)C1c1cccs1", "note": "(stereo unspecified)", "Potency": "inconclusive: 11.6 µM [falling, partial curve, poor fit]"}, {"smiles": "CCOC(=O)C(=CNc1ccc(C(F)(F)F)cc1)C(=O)OCC", "Potency": "inconclusive: 1.03 µM [falling, full curve]"}, {"smiles": "O=C(COc1ccc(Cl)cc1Br)OCC(=O)c1ccc[nH]1", "Potency": "inconclusive: 3.66 µM [falling, single point]"}, {"smiles": "O=C(Oc1ccccc1N1C(=O)C2CC=CCC2C1=O)c1ccc(Br)cc1", "note": "(stereo unspecified)", "Potency": "inconclusive: 29.1 µM [falling, single point]"}, {"smiles": "CCOC(=O)c1ccc(NC(=O)c2ccc3c(c2)c(C)c(C)n3Cc2ccc(F)cc2)cc1", "Potency": "inconclusive: 6.51 µM [falling, single point]"}, {"smiles": "Cn1cc(CCNC(=O)CC2C(=O)NCCN2Cc2cccc(Oc3ccccc3)c2)cn1", "note": "(stereo unspecified)", "Potency": "active: 14.6 µM"}, {"smiles": "O=C(O)C1CC=CCC1C(=O)Nc1ccc(S(=O)(=O)N2CCCc3ccccc32)cc1", "note": "(stereo unspecified)", "Potency": "inconclusive: 20.6 µM [activator, partial curve]"}, {"smiles": "COc1ccc(OC(=O)NCCc2ccccc2)cc1", "Potency": "inconclusive: 9.2 µM [activator, partial curve]"}, {"smiles": "COc1ccc(NC(=O)CCNC(=O)c2ccc([N+](=O)[O-])cc2)cc1S(=O)(=O)N1CCCCC1", "Potency": "inconclusive: 29.1 µM [falling, single point]"}, {"smiles": "CC1CCc2c(sc(NC(=O)C3=COCCO3)c2C(N)=O)C1", "note": "(stereo unspecified)", "Potency": "inconclusive: 3.26 µM [activator, full curve]"}, {"smiles": "Cn1c(C(=O)N2CCc3ccccc3C2)cc2c(=O)n3ccccc3nc21", "Potency": "inconclusive: 23.1 µM [activator, partial curve, poor fit]"}, {"smiles": "NC(=O)CC(NC(=O)Cc1cccc2ccccc12)c1ccc(NC2CCCC2)c([N+](=O)[O-])c1", "note": "(stereo unspecified)", "activity change, negative = inhibition": "inactive: 8.43%"}, {"smiles": "COc1cc(/C=N\\NC(=O)c2ccc(Cl)cc2)ccc1Oc1ccc([N+](=O)[O-])cn1", "Potency": "inconclusive: 29.1 µM [falling, partial curve, poor fit]"}, {"smiles": "CCc1c(Cl)nc(N)nc1Nc1ccccc1Cl", "activity change, negative = inhibition": "inactive: -1.35%"}, {"smiles": "Cc1ccc(-c2cc(-c3ccco3)c3c(N)c(C(=O)NN)oc3n2)cc1", "Potency": "active: 8.2 µM"}, {"smiles": "Clc1ccc(C2=NNC(=NCc3ccc4c(c3)OCO4)SC2)cc1", "Potency": "active: 23.1 µM"}, {"smiles": "Cc1ccc(N=Nc2ccc(O)c(P(=O)(c3ccccc3)c3ccccc3)c2)cc1", "Potency": "inconclusive: 29.1 µM [activator, single point]"}, {"smiles": "C/C(=N\\NC(=O)C(C)Oc1ccc([N+](=O)[O-])cc1)c1ccccn1", "note": "(stereo unspecified)", "Potency": "active: 6.51 µM"}]}]}
